The assay deals with T1, dysadherin (human (endogenous in HCC cells)) (UniProt Q96DB9).
T1 sequence: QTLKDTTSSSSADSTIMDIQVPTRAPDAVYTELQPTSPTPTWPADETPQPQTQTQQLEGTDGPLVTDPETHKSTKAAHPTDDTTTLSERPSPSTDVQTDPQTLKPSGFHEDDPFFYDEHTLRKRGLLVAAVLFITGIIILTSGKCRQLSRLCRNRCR
As to the kind of experiment: co-IP; coimmunoprecipitation of endogenous proteins in the HCC model; cell line and precipitated protein not given.

Sequences of proteins named here, by UniProt entry; tags and fusion partners are left off. Residues count along the entry.
UniProt P02751, residues 32-2477: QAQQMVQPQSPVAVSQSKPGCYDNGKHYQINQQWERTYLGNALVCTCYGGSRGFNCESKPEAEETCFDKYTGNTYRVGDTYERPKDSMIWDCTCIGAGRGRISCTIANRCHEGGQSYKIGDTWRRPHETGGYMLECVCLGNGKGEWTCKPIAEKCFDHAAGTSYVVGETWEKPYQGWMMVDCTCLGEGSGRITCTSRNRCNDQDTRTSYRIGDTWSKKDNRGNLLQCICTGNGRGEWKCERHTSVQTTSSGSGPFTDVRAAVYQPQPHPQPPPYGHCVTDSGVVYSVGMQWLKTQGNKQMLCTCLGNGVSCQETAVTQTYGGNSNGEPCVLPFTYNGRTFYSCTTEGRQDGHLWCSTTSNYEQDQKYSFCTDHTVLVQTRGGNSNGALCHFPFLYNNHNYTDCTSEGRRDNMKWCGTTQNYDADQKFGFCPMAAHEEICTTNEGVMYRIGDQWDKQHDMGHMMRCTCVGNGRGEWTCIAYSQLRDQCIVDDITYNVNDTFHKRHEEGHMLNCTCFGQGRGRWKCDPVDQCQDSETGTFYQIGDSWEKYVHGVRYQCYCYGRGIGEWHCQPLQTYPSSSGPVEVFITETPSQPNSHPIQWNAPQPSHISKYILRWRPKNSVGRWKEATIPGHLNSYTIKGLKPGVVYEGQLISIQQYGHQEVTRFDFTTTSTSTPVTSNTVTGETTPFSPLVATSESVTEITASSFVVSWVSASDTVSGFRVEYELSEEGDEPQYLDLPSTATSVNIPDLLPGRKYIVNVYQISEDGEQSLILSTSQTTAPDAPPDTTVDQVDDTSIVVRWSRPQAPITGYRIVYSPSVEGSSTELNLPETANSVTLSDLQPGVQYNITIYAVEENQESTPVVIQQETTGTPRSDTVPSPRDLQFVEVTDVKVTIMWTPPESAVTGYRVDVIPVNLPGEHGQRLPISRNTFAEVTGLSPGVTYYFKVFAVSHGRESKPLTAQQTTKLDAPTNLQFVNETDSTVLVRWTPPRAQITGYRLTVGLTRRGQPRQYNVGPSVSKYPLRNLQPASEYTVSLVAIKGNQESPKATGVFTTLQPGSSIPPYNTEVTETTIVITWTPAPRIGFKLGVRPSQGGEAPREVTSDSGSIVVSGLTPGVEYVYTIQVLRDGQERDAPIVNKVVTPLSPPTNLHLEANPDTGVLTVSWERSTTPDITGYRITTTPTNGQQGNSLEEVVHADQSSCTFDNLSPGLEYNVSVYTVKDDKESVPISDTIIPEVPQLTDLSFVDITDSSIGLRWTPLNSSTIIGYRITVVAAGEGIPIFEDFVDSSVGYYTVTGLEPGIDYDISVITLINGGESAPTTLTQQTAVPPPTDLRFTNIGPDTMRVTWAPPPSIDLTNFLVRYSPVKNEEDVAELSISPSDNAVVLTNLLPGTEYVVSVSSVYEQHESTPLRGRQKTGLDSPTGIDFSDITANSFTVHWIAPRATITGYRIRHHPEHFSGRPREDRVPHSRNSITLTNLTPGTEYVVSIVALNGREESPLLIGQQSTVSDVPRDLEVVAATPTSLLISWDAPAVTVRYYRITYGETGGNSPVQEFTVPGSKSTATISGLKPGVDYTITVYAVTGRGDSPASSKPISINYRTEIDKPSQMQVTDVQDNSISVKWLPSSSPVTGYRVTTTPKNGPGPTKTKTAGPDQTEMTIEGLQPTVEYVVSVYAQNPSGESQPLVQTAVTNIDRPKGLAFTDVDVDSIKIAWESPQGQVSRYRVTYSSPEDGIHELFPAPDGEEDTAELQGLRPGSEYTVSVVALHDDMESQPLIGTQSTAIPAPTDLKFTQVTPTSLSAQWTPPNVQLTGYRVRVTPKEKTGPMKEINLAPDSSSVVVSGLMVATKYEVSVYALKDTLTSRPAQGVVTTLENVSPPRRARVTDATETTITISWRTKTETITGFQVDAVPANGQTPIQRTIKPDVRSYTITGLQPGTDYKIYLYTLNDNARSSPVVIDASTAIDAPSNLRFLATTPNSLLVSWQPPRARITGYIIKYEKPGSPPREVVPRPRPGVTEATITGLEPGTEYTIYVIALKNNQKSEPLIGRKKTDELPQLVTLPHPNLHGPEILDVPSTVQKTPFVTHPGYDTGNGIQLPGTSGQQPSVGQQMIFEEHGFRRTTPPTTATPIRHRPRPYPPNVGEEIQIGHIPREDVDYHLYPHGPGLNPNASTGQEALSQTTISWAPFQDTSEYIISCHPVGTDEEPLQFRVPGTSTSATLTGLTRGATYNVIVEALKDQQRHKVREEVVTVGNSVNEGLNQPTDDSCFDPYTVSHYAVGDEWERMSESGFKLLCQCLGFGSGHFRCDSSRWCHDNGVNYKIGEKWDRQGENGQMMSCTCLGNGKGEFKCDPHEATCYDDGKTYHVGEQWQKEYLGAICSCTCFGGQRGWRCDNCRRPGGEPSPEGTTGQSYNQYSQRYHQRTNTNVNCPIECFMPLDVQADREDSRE

These are yes or no findings as the source states them, for the method shown. Binding seen in cells or lysates may run through a third protein. Some results given as binding are weak or reduced against the parent protein; the word gives no strength.

Consider “fibronectin (from UniProt P02751 32-2477)”, for which the binding result is reported as “binds”.

The values above are taken from article PMC12745361, “Dysadherin/YAP axis fuels stem plasticity and immune escape in liver cancer” (Signal Transduction and Targeted Therapy, 2025).
